# According to PubChem BioAssay AID256 (DTP/NCI, 2004):
# The list does not hold the whole screen: it gathers tests that were run many times, whatever their T/C, doses with no T/C, and many T/C values between a quarter and a half above the control. Further doses and runs are listed elsewhere. T/C gives the treated animals as a percentage of the vehicle group. Some doses have a count of surviving animals in place of a T/C: the source holds a T/C of zero for them, seemingly a mark for toxic or unscored doses. Some survivor counts are full or nearly so, which does not show that the dose was tolerated: survival well below the control is almost never listed, so the zero probably covers shortened survival too. Counts of survivors are from the toxicity check (mostly the fifth day) where no day follows; animals may have died later. Schedules are NCI's codes, taken here to give the interval after Q, in days (D) or hours (H), and the number of doses after X. Some entries were tested several times; the values are given in rising order. Where survival is the endpoint, this PubChem deposit counts one and a half times the control or more as active, and values a quarter to a half above the control carry no call in these data; other NCI protocols may use other cut-offs. Some T/C values carry the count of animals alive at the toxicity check (mostly the fifth day); without a count, all were alive then. Brackets with × stand for listed records that agree.
# Test system: CD2F1 mice, L1210 leukemia ip, survival T/C
# Test: NCI In Vivo Anticancer Drug Screen. Data for tumor model L1210 Leukemia (intraperitoneal) in CD2F1 (CDF1) mice
# Conditions: higher T/C = longer survival
# In short: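 Vehicle-treated tumor-bearing mice served as controls (C) for compound-treated mice (T). Reported figure is T divided by C.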
# [1] = T/C endpoint: mean survival time, dose: 100.0 mg/kg/injection, schedule: Q04DX003 (ip), vehicle: saline with Tween-80
# [2] = T/C endpoint: mean survival time, dose: 200.0 mg/kg/injection, schedule: Q04DX003 (ip), vehicle: saline with Tween-80
# [3] = T/C endpoint: mean survival time, dose: 400.0 mg/kg/injection, schedule: Q04DX003 (ip), vehicle: saline with Tween-80
# [4] = T/C endpoint: mean survival time, dose: 200.0 mg/kg/injection, schedule: Q01DX001 (ip), vehicle: saline
# [5] = T/C endpoint: mean survival time, dose: 400.0 mg/kg/injection, schedule: Q01DX001 (ip), vehicle: saline
# [6] = T/C endpoint: mean survival time, dose: 400.0 mg/kg/injection, schedule: Q04DX003 (ip), vehicle: saline
# [7] = T/C endpoint: mean survival time, dose: 50.0 mg/kg/injection, schedule: Q01DX009 (ip), vehicle: saline with Tween-80
# [8] = T/C endpoint: mean survival time, dose: 16.0 mg/kg/injection, schedule: Q04DX003 (ip), vehicle: saline
# [9] = T/C endpoint: mean survival time, dose: 400.0 mg/kg/injection, schedule: Q04DX002 (ip), vehicle: saline with Tween-80
smiles,measurement,setting,value
CNCCN=c1ccc2c3c1c(O)c1c(O)ccc(=O)c1c3[nH]n2CCNCCO,survivor count,"T/C endpoint: median survival time, dose: 12.5 mg/kg/injection, schedule: Q01DX009 (ip), vehicle: water",6 of 6
same,survivor count,"T/C endpoint: median survival time, dose: 25.0 mg/kg/injection, schedule: Q01DX009 (ip), vehicle: water",3 of 6
same,survivor count,"T/C endpoint: median survival time, dose: 50.0 mg/kg/injection, schedule: Q01DX009 (ip), vehicle: water",0 of 6
C/C(=N\NC(=S)N1CC2CCC(CC2)C1)c1cccc(C)n1,survivor count,"T/C endpoint: median survival time, dose: 50.0 mg/kg/injection, schedule: Q01DX005 (ip), vehicle: saline with Tween-80",4 of 6 and 5 of 6
CC(=O)Oc1ccc([N+](=O)[O-])cc1[N+](=O)[O-],survivor count,"T/C endpoint: mean survival time, dose: 50.0 mg/kg/injection, schedule: Q04DX002 (ip), vehicle: Klucel (hydroxypropylcellulose) (HPC)",0 of 3
same,survivor count,"T/C endpoint: mean survival time, dose: 100.0 mg/kg/injection, schedule: Q04DX002 (ip), vehicle: Klucel (hydroxypropylcellulose) (HPC)",0 of 3
same,survivor count,"T/C endpoint: mean survival time, dose: 200.0 mg/kg/injection, schedule: Q04DX002 (ip), vehicle: Klucel (hydroxypropylcellulose) (HPC)",0 of 3
same,survivor count,"T/C endpoint: mean survival time, dose: 400.0 mg/kg/injection, schedule: Q04DX002 (ip), vehicle: Klucel (hydroxypropylcellulose) (HPC)",0 of 3
CN1CCC(O)(c2ccccc2C2=NC(C)(C)CO2)CC1,survivor count,"T/C endpoint: mean survival time, dose: 400.0 mg/kg/injection, schedule: Q01DX001 (ip), vehicle: saline with Tween-80",2 of 6
Cc1cc(C)c(C(Br)C(Br)c2c(C)cc(C)cc2C)c(C)c1 (stereo not drawn),survivor count,[1],6 of 6
same,survivor count,[2],6 of 6
same,survivor count,[3],5 of 6
CCCCN(CCCC)CCCC,survivor count,[4],0 of 3
same,survivor count,[5],0 of 3
COCCC1(CN2c3ccccc3Sc3ccccc32)CCN(C)C1 (stereo not drawn),survivor count,[6],0 of 6
O=C(NC1CCc2ccccc21)c1ccccc1 (stereo not drawn),survivor count,"T/C endpoint: mean survival time, dose: 100.0 mg/kg/injection, schedule: Q01DX009 (ip), vehicle: saline with Tween-80",6 of 6
same,survivor count,"T/C endpoint: mean survival time, dose: 200.0 mg/kg/injection, schedule: Q01DX009 (ip), vehicle: saline with Tween-80",6 of 6
COc1ccc(OC)c(/C=C(\C#N)c2ccc([N+](=O)[O-])cc2)c1,T/C,"T/C endpoint: mean survival time, dose: 12.5 mg/kg/injection, schedule: Q01DX009 (ip), vehicle: saline with Tween-80",126 % of control
same,T/C,"T/C endpoint: mean survival time, dose: 25.0 mg/kg/injection, schedule: Q01DX009 (ip), vehicle: saline with Tween-80",143 % of control
same,survivor count,"T/C endpoint: mean survival time, dose: 37.5 mg/kg/injection, schedule: Q01DX009 (ip), vehicle: saline with Tween-80",6 of 6
same,T/C,[7],135 % of control
same,survivor count,[7],6 of 6
same,survivor count,[3],6 of 6
OC(C1CO1)C(O)C1CO1 (stereo not drawn),T/C,"T/C endpoint: mean survival time, dose: 0.5 mg/kg/injection, schedule: Q03HX024 (ip), vehicle: saline",133 % of control [9 of 10 alive]
same,T/C,"T/C endpoint: mean survival time, dose: 1.0 mg/kg/injection, schedule: Q01DX009 (ip), vehicle: saline, evaluated on day 30",130 and 145 % of control
same,T/C,"T/C endpoint: mean survival time, dose: 1.0 mg/kg/injection, schedule: Q01DX009 (ip), vehicle: saline, evaluated on day 60",110 and 131 % of control
same,T/C,"T/C endpoint: mean survival time, dose: 1.0 mg/kg/injection, schedule: Q03HX008 (ip), vehicle: saline",132 % of control [8 of 10 alive]
same,T/C,"T/C endpoint: mean survival time, dose: 1.0 mg/kg/injection, schedule: Q03HX016 (ip), vehicle: saline",134 % of control
same,T/C,"T/C endpoint: mean survival time, dose: 1.4 mg/kg/injection, schedule: Q01DX009 (ip), vehicle: saline",127 % of control
same,T/C,"T/C endpoint: mean survival time, dose: 2.0 mg/kg/injection, schedule: Q01DX009 (ip), vehicle: saline, evaluated on day 30",178 and 182 % of control
same,T/C,"T/C endpoint: mean survival time, dose: 2.0 mg/kg/injection, schedule: Q01DX009 (ip), vehicle: saline, evaluated on day 60",140 and 160 % of control
same,T/C,"T/C endpoint: mean survival time, dose: 2.0 mg/kg/injection, schedule: Q01DX009 (sc), vehicle: saline",127 % of control
same,T/C,"T/C endpoint: mean survival time, dose: 4.0 mg/kg/injection, schedule: Q01DX001 (ip), vehicle: saline",127 % of control
same,T/C,"T/C endpoint: mean survival time, dose: 4.0 mg/kg/injection, schedule: Q01DX009 (ip), vehicle: saline",146 % of control
same,T/C,"T/C endpoint: mean survival time, dose: 4.0 mg/kg/injection, schedule: Q04DX003 (ip), vehicle: saline, evaluated on day 30",143 % of control
same,T/C,"T/C endpoint: mean survival time, dose: 4.0 mg/kg/injection, schedule: Q04DX003 (ip), vehicle: saline, evaluated on day 60",147 % of control
same,T/C,"T/C endpoint: mean survival time, dose: 4.0 mg/kg/injection, schedule: Q08DX002 (ip), vehicle: saline",142 % of control
same,T/C,"T/C endpoint: mean survival time, dose: 5.0 mg/kg/injection, schedule: Q01DX001 (ip), vehicle: saline",134 % of control
same,T/C,"T/C endpoint: mean survival time, dose: 8.0 mg/kg/injection, schedule: Q01DX001 (ip), vehicle: saline",136 % of control
same,T/C,"T/C endpoint: mean survival time, dose: 8.0 mg/kg/injection, schedule: Q01DX001 (sc), vehicle: saline",125 % of control
same,survivor count,"T/C endpoint: mean survival time, dose: 8.0 mg/kg/injection, schedule: Q01DX009 (ip), vehicle: saline",6 of 6
same,T/C,"T/C endpoint: mean survival time, dose: 10.0 mg/kg/injection, schedule: Q01DX001 (ip), vehicle: saline, evaluated on day 30",176 and 191 % of control
same,T/C,"T/C endpoint: mean survival time, dose: 10.0 mg/kg/injection, schedule: Q01DX001 (ip), vehicle: saline, evaluated on day 60","166, 176 (2×), 179 % of control"
same,T/C,"T/C endpoint: mean survival time, dose: 12.5 mg/kg/injection, schedule: Q01DX001 (ip), vehicle: saline","186, 187, 252, 418 % of control"
same,T/C,"T/C endpoint: mean survival time, dose: 15.0 mg/kg/injection, schedule: Q01DX001 (ip), vehicle: saline, evaluated on day 30",217 % of control
same,T/C,"T/C endpoint: mean survival time, dose: 15.0 mg/kg/injection, schedule: Q01DX001 (ip), vehicle: saline, evaluated on day 60","102 [7 of 10 alive], 286, 425, 428 % of control"
same,T/C,"T/C endpoint: mean survival time, dose: 16.0 mg/kg/injection, schedule: Q01DX001 (ip), vehicle: saline",127 % of control
same,survivor count,"T/C endpoint: mean survival time, dose: 16.0 mg/kg/injection, schedule: Q01DX009 (ip), vehicle: saline",9 of 10 and 6 of 6
same,T/C,[8],132 % of control
same,survivor count,[8],10 of 10
same,survivor count,"T/C endpoint: mean survival time, dose: 40.0 mg/kg/injection, schedule: Q01DX001 (ip), vehicle: saline",5 of 6
same,survivor count,"T/C endpoint: mean survival time, dose: 80.0 mg/kg/injection, schedule: Q01DX001 (ip), vehicle: saline",6 of 6
same,T/C,"T/C endpoint: median survival time, dose: 8.0 mg/kg/injection, schedule: Q01DX001 (ip), vehicle: saline",134 and 148 % of control
same,T/C,"T/C endpoint: median survival time, dose: 12.0 mg/kg/injection, schedule: Q03DX003 (ip), vehicle: saline",139 % of control
Cc1cc(O)c2cc3c(O)c(O)ccc3cc2c1,survivor count,"T/C endpoint: mean survival time, dose: 100.0 mg/kg/injection, schedule: Q01DX001 (ip), vehicle: saline",0 of 6
same,survivor count,[4],0 of 6
same,survivor count,[5],0 of 6
O=C(Nc1cc(Cl)ccc1C(=O)O)c1cccc(C[n+]2ccccc2)c1,survivor count,"T/C endpoint: median survival time, dose: 800.0 mg/kg/injection, schedule: Q01DX005 (ip), vehicle: saline with Tween-80",0 of 6
O=C(O)c1cc([N+](=O)[O-])cc([N+](=O)[O-])c1 (tested in a mixture with another compound),survivor count,[9],0 of 3
COC(=O)C1OC(Sc2ncnc3nc[nH]c23)C(O)C(O)C1O (stereo not drawn),T/C,"T/C endpoint: median survival time, dose: 200.0 mg/kg/injection, schedule: Q01DX005 (ip), vehicle: water",131 % of control
same,T/C,"T/C endpoint: median survival time, dose: 400.0 mg/kg/injection, schedule: Q01DX005 (ip), vehicle: water",135 % of control
CCOP(=O)(OCC)C1=C(SCC)C(F)(F)C(F)(F)C1(F)F,survivor count,"T/C endpoint: mean survival time, dose: 150.0 mg/kg/injection, schedule: Q01DX001 (ip), vehicle: other",2 of 6
same,survivor count,"T/C endpoint: mean survival time, dose: 300.0 mg/kg/injection, schedule: Q01DX001 (ip), vehicle: other",0 of 6
COc1ccc(/C=C/c2cc[n+](C)cc2)cc1,survivor count,"T/C endpoint: mean survival time, dose: 50.0 mg/kg/injection, schedule: Q01DX009 (ip), vehicle: saline",2 of 6
same,survivor count,[1],5 of 6
same,survivor count,[2],0 of 6
same,survivor count,[3],0 of 6
CCCCOC(=O)Nc1ccccn1,survivor count,[9],2 of 3
[CH3][Sb]([CH3])([CH3])([O]C(=O)CBr)[O]C(=O)CBr,survivor count,[1],3 of 6
same,survivor count,[2],0 of 6
same,survivor count,[3],0 of 6
Cn1c(=O)ccc2ccccc21,survivor count,[9],0 of 3
CC(C)C(Br)C(Br)c1ccccc1 (stereo not drawn),survivor count,[6],5 of 6
